Reference: PMC8365910
These are yes or no findings as the source states them, for the method shown. Binding seen in cells or lysates may run through a third protein. Some entries that bind do so weakly or less than the wild type.

Amino acid sequences for entries named in this document (tags omitted).
UniProt Q9QZL0: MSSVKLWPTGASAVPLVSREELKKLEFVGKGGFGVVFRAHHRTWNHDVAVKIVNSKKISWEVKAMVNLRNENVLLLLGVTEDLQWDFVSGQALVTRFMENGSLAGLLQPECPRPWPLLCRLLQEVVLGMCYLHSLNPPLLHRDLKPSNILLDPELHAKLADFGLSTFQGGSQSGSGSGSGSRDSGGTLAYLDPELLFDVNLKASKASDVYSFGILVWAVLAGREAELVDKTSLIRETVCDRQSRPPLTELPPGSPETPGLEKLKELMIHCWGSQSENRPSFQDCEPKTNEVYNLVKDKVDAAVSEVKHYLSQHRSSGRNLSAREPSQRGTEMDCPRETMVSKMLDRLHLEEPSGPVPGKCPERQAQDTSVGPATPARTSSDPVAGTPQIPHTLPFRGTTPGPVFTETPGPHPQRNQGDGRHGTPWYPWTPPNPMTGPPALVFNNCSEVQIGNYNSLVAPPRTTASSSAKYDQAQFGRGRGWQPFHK

Target: receptor-interacting serine-threonine kinase 3 (RIPK3) (mouse (endogenous in colon tissue)) (UniProt Q9QZL0)
Experiment: co-IP; anti-RIPK3 antibody on protein A/G magnetic beads, incubated overnight at 4 °C with colon tissue supernatant in RIPA buffer; blot for MLKL; isotype IgG control; colon of control, TNBS model and TNBS + WMW treated mice

B1: mixed lineage kinase domain-like (MLKL) (protein, UniProt Q9D2Y4 1-472)
chain: MDKLGQIIKLGQLIYEQCEKMKYCRKQCQRLGNRVHGLLQPLQRLQAQGKKNLPDDITAALGRFDEVLKEANQQIEKFSKKSHIWKFVSVGNDKILFHEVNEKLRDVWEELLLLLQVYHWNTVSDVSQPASWQQEDRQDAEEDGNENMKVILMQLQISVEEINKTLKQCSLKPTQEIPQDLQIKEIPKEHLGPPWTKLKTSKMSTIYRGEYHRSPVTIKVFNNPQAESVGIVRFTFNDEIKTMKKFDSPNILRIFGICIDQTVKPPEFSIVMEYCELGTLRELLDREKDLTMSVRSLLVLRAARGLYRLHHSETLHRNISSSSFLVAGGYQVKLAGFELSKTQNSISRTAKSTKAERSSSTIYVSPERLKNPFCLYDIKAEIYSFGIVLWEIATGKIPFEGCDSKKIRELVAEDKKQEPVGQDCPELLREIINECRAHEPSQRPSVDGRSLSGRERILERLSAVEESTDKKV
- binding: binds
